Data on 22 molecules can be found in PubChem BioAssay AID292 (DTP/NCI, 2004).

SMILES strings stand for the structures. The list does not hold the whole screen: it gathers tests that were run many times, whatever their T/C, doses with no T/C, and many T/C values between a quarter and a half above the control. Other doses and runs of a compound stand elsewhere. T/C: endpoint of the treated group in % of that of the vehicle group. Some doses have a count of surviving animals in place of a T/C: the source holds a T/C of zero for them, seemingly a mark for toxic or unscored doses. Some doses without a T/C left all or most animals alive at the check, yet need not have been tolerated: the source hardly ever lists a survival T/C far under the control, and the zero likely stands for such cases as well. Counts of survivors are from the toxicity check (mostly the fifth day) where no day follows; animals may have died later. Schedule codes are those of the source, read here as Q, the interval in days (D) or hours (H), X, the number of doses. Some doses were run more than once; the values are given in rising order. Where survival is the endpoint, the PubChem record calls one and a half times the control and up active, and a quarter to a half above the control has no call in these data; cut-offs in other NCI protocols can differ. Some T/C values carry the count of animals alive at the toxicity check (mostly the fifth day); where none is given, no animal had died by that day.

This assay deals with B6C3F1 mice, ip Sarcoma M5076, median survival T/C. Description: NCI In Vivo Anticancer Drug Screen. Data for tumor model Sarcoma M5076 (intraperitoneal) in B6C3F1 mice. Conditions: T/C endpoint: median survival time, higher T/C = longer survival. The procedure, abridged:
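Transplantable tumour in mice; compound-treated vs vehicle-treated groups. Read-out: survival. Value = treated/control ratio.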

The mark [1] stands for this setting: dose: 400.0 mg/kg/injection, schedule: Q04DX004 (ip), vehicle: saline with Tween-80.
Where [2] appears, read: dose: 100.0 mg/kg/injection, schedule: Q04DX004 (ip), vehicle: Klucel (hydroxypropylcellulose) (HPC).
[3] abbreviates: dose: 200.0 mg/kg/injection, schedule: Q04DX004 (ip), vehicle: Klucel (hydroxypropylcellulose) (HPC).
Setting [4] is: dose: 400.0 mg/kg/injection, schedule: Q04DX004 (ip), vehicle: Klucel (hydroxypropylcellulose) (HPC).
The mark [5] stands for this setting: dose: 800.0 mg/kg/injection, schedule: Q04DX004 (ip), vehicle: Klucel (hydroxypropylcellulose) (HPC).
[6] abbreviates: dose: 600.0 mg/kg/injection, schedule: Q04DX004 (ip), vehicle: Klucel (hydroxypropylcellulose) (HPC).
Setting [7] is: dose: 100.0 mg/kg/injection, schedule: Q04DX004 (ip), vehicle: water.
The mark [8] stands for this setting: dose: 200.0 mg/kg/injection, schedule: Q04DX004 (ip), vehicle: water.
The mark [9] stands for this setting: dose: 268.0 mg/kg/injection, schedule: Q04DX004 (ip), vehicle: Klucel (hydroxypropylcellulose) (HPC).
Where [10] appears, read: dose: 50.0 mg/kg/injection, schedule: Q04DX004 (ip), vehicle: saline.

With `COc1cc2c(c3c1c(=O)c1ccccc1n3C)C=C([N+](=O)[O-])C(C)(C)O2`, the survivor count by setting is: (dose: 100.0 mg/kg/injection, schedule: Q04DX004 (ip), vehicle: saline + Tween-80 + alcohol) 1 of 10 on day 14; (dose: 200.0 mg/kg/injection, schedule: Q04DX004 (ip), vehicle: saline + Tween-80 + alcohol) 0 of 10 on day 14.

For the molecule `CCN(CC)c1ccc2[nH]c3c(C(N)=O)cc(=O)c(=O)c=3oc2c1`, the survivor count under setting [1] is given as 2 of 10 on day 9.

On to `CN(C)CCOCC(O)(c1ccccc1)c1ccccc1`, for which the survivor count by setting is: (dose: 150.0 mg/kg/injection, schedule: Q04DX004 (ip), vehicle: saline) 4 of 10 on day 14; (dose: 300.0 mg/kg/injection, schedule: Q04DX004 (ip), vehicle: saline) 0 of 10 on day 14; (dose: 600.0 mg/kg/injection, schedule: Q04DX004 (ip), vehicle: saline) 0 of 10 on day 14.

Turning to `O=C(NNC(=O)c1cccc(C(=O)NNC(=O)c2ccc(Cl)c(Cl)c2)n1)c1ccc(Cl)c(Cl)c1`, the survivor count is 6 of 10 on day 14 under setting [2], 7 of 10 on day 14 under setting [3] and 2 of 10 on day 14 under setting [4].

With `COc1ccc(CCN2C(=O)C(=O)N(C(C)C)C2=O)cc1OC`, the survivor count is given as 10 of 10 on day 14 (dose: 25.0 mg/kg/injection, schedule: Q04DX004 (ip), vehicle: Klucel (hydroxypropylcellulose) (HPC)); 10 of 10 on day 14 (dose: 50.0 mg/kg/injection, schedule: Q04DX004 (ip), vehicle: Klucel (hydroxypropylcellulose) (HPC)); 10 of 10 on day 14 under setting [2]; 10 of 10 on day 14 under setting [3]; 9 of 10 on day 14 under setting [4].

On to `O=C(Nc1ccc2ccccc2c1)C1C(=O)C(=O)N(c2ccc3ccccc3c2)C1=O` (stereo unspecified), for which the survivor count is 10 of 10 on day 14 under setting [4] and 8 of 10 on day 14 under setting [5].

As for `COC1C(N)C(OC2C(Oc3cccc4c(O)c5c(=O)oc6ccc(C)c7c(=O)oc(c34)c5c67)OC(C)C(O)C2(C)O)OC(C)C1O` (stereo unspecified), the T/C was 131 % of control [9 of 10 alive on day 14] (dose: 1.2 mg/kg/injection, schedule: Q04DX004 (ip), vehicle: DMSO); 146 % of control (dose: 1.25 mg/kg/injection, schedule: Q04DX004 (ip), vehicle: other); 144 % of control (dose: 2.5 mg/kg/injection, schedule: Q04DX004 (ip), vehicle: DMSO); 145 % of control (dose: 2.5 mg/kg/injection, schedule: Q04DX004 (ip), vehicle: other); 148 % of control [9 of 10 alive on day 14] (dose: 5.0 mg/kg/injection, schedule: Q04DX004 (ip), vehicle: DMSO); 146 [9 of 10 alive on day 14] and 149 % of control (dose: 5.0 mg/kg/injection, schedule: Q04DX004 (ip), vehicle: other). The survivor count was 6 of 10 on day 14 (dose: 10.0 mg/kg/injection, schedule: Q04DX004 (ip), vehicle: other); 4 of 10 on day 14 (dose: 20.0 mg/kg/injection, schedule: Q04DX004 (ip), vehicle: DMSO); 1 of 10 on day 14 and 4 of 10 on day 14 (dose: 20.0 mg/kg/injection, schedule: Q04DX004 (ip), vehicle: other); 0 of 10 on day 14 (dose: 40.0 mg/kg/injection, schedule: Q04DX004 (ip), vehicle: other).

For the molecule `CN(C)C(=O)SC1=C(c2c(Cl)cccc2Cl)C(=O)c2ccccc21`, under setting [6], the survivor count was 10 of 10 on day 14.

`O=c1[nH]cnc2n[nH]nc12`: the survivor count (dose: 1200.0 mg/kg/injection, schedule: Q04DX004 (ip), vehicle: Klucel (hydroxypropylcellulose) (HPC)) was 3 of 10 on day 14.

As for `C#CCN(Cc1ccc2nc(N)[nH]c(=O)c2c1)c1ccc(C(=O)NC(CCC(=O)O)C(=O)O)cc1` (stereo unspecified), the T/C is 143 % of control under setting [7] and 130 % of control under setting [8]. Also, the survivor count (dose: 800.0 mg/kg/injection, schedule: Q04DX004 (ip), vehicle: water) is reported as 4 of 10 on day 14.

As to `C/C(=N\NC(=S)N1CCN(c2ccccn2)CC1)c1ccccn1`, the survivor count under setting [2] is given as 0 of 10 on day 14 and the survivor count under setting [3] is 0 of 10 on day 14.

In the case of `COc1nc(C(Cl)(Cl)Cl)c(Cl)c(OC)c1Cl`, the T/C is 127 % of control under setting [3], 128 % of control under setting [9] and 149 % of control under setting [4]. In addition, the survivor count was 5 of 10 on day 14 under setting [9]; 0 of 10 on day 14 under setting [4]; 0 of 10 on day 14 and 3 of 10 on day 14 under setting [6]; 1 of 10 on day 14 under setting [5].

In the case of `COC(=O)[C@@]12OC[C@]34[C@H]([C@@H](O)[C@@H]1O)[C@@]1(C)CC(=O)C(OC(=O)CC(=O)OC5=C(C)[C@@H]6C[C@H]7OC(=O)[C@H](OC(=O)/C=C(\C)C(C)C)[C@H]8[C@]9(C(=O)OC)OC[C@]78[C@H]([C@@H](O)[C@@H]9O)[C@@]6(C)CC5=O)=C(C)[C@@H]1C[C@H]3OC(=O)[C@H](OC(=O)/C=C(\C)C(C)C)[C@@H]24`, the survivor count (dose: 12.0 mg/kg/injection, schedule: Q04DX004 (ip), vehicle: saline + Tween-80 + alcohol) is 0 of 10 on day 14.

Turning to `CC[C@](O)(C(=O)O)c1cc2n(c(=O)c1CO)Cc1cc3ccccc3nc1-2`, the T/C was 131 % of control (dose: 12.5 mg/kg/injection, schedule: Q04DX004 (ip), vehicle: saline) and 142 % of control [9 of 10 alive on day 14] (dose: 25.0 mg/kg/injection, schedule: Q04DX004 (ip), vehicle: saline). The survivor count by setting is: under setting [10], 3 of 10 on day 14; (dose: 100.0 mg/kg/injection, schedule: Q04DX004 (ip), vehicle: saline) 0 of 10 on day 14.

As for `COc1ccc2c(n1)Sc1nc3ccccc3nc1N2`, the survivor count (dose: 300.0 mg/kg/injection, schedule: Q04DX004 (ip), vehicle: saline with Tween-80) is on record as 10 of 10 on day 14 and the survivor count (dose: 600.0 mg/kg/injection, schedule: Q04DX004 (ip), vehicle: saline with Tween-80) is 10 of 10 on day 14.

With `Cc1ccoc1`, the survivor count (dose: 266.6 mg/kg/injection, schedule: Q03HX012 (ip), vehicle: saline with Tween-80) was 2 of 10 on day 14.

As for `N[C@@H](Cc1ccc(N(CCCl)CCCl)cc1)C(=O)O`, the T/C by setting is: (dose: 1.0 mg/kg/injection, schedule: Q04DX004 (ip), vehicle: saline with Tween-80, evaluated on day 60) 143 % of control; (dose: 1.0 mg/kg/injection, schedule: Q04DX004 (ip), vehicle: saline with Tween-80, evaluated on day 69) 138 % of control; (dose: 1.0 mg/kg/injection, schedule: Q04DX004 (ip), vehicle: saline) 135 % of control; (dose: 2.0 mg/kg/injection, schedule: Q04DX004 (ip), vehicle: saline with Tween-80) 140 % of control. The survivor count (dose: 8.0 mg/kg/injection, schedule: Q04DX004 (ip), vehicle: saline with Tween-80) is listed as 9 of 9 on day 14.

On to `O=C1N(CCN2CCC3(CC2)OCCO3)CCN1c1cc(Cl)cc(Cl)c1`, for which the survivor count reads like this: under setting [7], 10 of 10 on day 14; under setting [8], 0 of 10 on day 14; (dose: 400.0 mg/kg/injection, schedule: Q04DX004 (ip), vehicle: water) 0 of 10 on day 14.

As to `Nc1ccc2ccc(NS(=O)(=O)N3CCCCC3)cc2c1`, the T/C (dose: 800.0 mg/kg/injection, schedule: Q04DX004 (ip), vehicle: saline with Tween-80) is 125 % of control [7 of 10 alive on day 14].

`CN(C)c1cc2c(nn1)Nc1ccccc1S2`: the survivor count under setting [1] is 10 of 10 on day 14.

As to `CC(C)(C[NH-])C[NH-].[Cl][Pt+2][Cl]`, the T/C was 136 % of control (dose: 0.25 mg/kg/injection, schedule: Q04DX004 (ip), vehicle: water); 131 and 132 % of control (dose: 0.5 mg/kg/injection, schedule: Q04DX004 (ip), vehicle: water).

`CCOc1ccc(-c2nc3ccc(-c4nc5ccc(N6CCN(C)CC6)cc5[nH]4)cc3[nH]2)cc1`: the survivor count under setting [10] is on record as 0 of 10 on day 14.
